# In paper PMC5394238:
# The chains behind the UniProt entries cited, without tags or fusion partners. Where a name states a change or a piece, a line headed by the entry shows the natural chain unless it says otherwise. A line that says so, or that is headed by a name, gives the form on record, which may keep a tag or linker.
# 227/332-CL mutant of Drosophila kinesin-1 (1-401) (P17210, form named): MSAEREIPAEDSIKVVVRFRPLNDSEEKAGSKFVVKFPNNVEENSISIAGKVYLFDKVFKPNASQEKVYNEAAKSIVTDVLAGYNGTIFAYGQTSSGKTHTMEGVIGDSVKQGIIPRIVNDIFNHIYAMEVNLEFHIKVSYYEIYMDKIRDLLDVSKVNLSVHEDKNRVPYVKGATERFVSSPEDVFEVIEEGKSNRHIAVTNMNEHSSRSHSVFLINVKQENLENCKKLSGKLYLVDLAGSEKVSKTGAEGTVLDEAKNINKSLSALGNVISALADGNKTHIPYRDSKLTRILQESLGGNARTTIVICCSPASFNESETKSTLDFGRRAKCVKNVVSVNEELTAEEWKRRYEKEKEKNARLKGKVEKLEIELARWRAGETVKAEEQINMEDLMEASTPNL
# cysteine-light (CL) mutant of Drosophila kinesin-1 (1-401) (P17210, form named): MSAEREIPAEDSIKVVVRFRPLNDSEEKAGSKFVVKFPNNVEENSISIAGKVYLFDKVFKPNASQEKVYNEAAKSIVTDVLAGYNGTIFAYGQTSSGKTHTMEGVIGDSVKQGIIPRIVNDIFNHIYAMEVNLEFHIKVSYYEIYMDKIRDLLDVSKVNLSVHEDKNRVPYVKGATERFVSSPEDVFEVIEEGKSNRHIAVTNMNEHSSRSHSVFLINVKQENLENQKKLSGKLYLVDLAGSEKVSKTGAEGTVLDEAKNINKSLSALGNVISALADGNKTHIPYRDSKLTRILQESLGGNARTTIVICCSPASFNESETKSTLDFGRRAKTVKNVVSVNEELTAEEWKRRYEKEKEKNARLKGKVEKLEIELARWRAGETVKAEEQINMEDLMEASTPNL
# These are yes or no findings as the source states them, for the method shown. Some binding calls cover weakened binding; strength is not graded here.
# Target: 227/332-CL mutant of Drosophila kinesin-1 (1-401) (Drosophila melanogaster) (UniProt P17210)
# Assay: tandem affinity co-purification (Ni-NTA, then Strep-Tactin); two heads co-expressed in E. coli BL21(DE3) from pCDF-duet (His-tag) and pMAL-p2 (MBP-tag, strep tag); supernatant over Ni-NTA, eluate over Strep-Tactin; the cysteine-light pair purified similarly
substance,measurement,value
cysteine-light (CL) mutant of Drosophila kinesin-1 (1-401) (from UniProt P17210 1-401) (domain or fragment),binding,binds
